Experimental data as given in US20200360479A1.
No constants are given. Whether binding was seen depends on the method and setting. Some entries that bind do so weakly or less than the wild type.

Amino acid sequences for entries named in this document (tags omitted). A change or cut given only in a name is not applied to a line headed by its entry.
UniProt P78556: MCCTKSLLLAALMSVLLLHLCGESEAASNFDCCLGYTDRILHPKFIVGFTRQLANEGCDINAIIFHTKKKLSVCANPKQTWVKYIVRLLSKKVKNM

Key:
CCR6 [1] = target: T1, CCR6 (UniProt P51684); assay: inferred from calcium flux on CCR6+ Jurkat cells
T1 sequence (looked up): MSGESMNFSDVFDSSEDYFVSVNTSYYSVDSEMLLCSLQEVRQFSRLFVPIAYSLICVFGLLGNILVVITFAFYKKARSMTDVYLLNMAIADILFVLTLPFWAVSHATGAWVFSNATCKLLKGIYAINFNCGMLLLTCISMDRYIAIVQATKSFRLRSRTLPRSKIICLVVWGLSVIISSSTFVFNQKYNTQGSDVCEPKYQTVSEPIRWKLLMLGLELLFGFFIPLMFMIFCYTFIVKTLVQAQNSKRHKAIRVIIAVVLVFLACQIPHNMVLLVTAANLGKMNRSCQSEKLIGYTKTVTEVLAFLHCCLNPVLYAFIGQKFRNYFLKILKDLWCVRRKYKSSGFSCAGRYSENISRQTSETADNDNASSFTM

CCR6 [2] = target: T1, CCR6; assay: inferred from chemotaxis inhibition assays
CCR6 [3] = target: T1, CCR6; assay: radioligand displacement on CCR6+ COS-7 cells

binding (CCR6 [1]) | binding (CCR6 [2]) | binding (CCR6 [3]) | Substance
binds | binds | binds | CCL20 S64C locked dimer (from UniProt P78556 27-96) (ligand)
– | – | binds | CCL20 WT (from UniProt P78556 27-96) (ligand)
